Values quoted from earlier work as cited in patent publication US20090069271A1, “WOOD TREATMENT” (priority 2005, published 2009).
Some entries share one result that the patent states for a list of compounds. For at least one compound, name, drawing or mass did not settle the structure.

Conditions: aqueous dioxane; tri-(dicyclohexylcarbinyl) borate = 1; cited from earlier work

## CC(C)(OB(OC(C)(C)C(Cl)(Cl)Cl)OC(C)(C)C(Cl)(Cl)Cl)C(Cl)(Cl)Cl [Tri-(β,β,β-trichloro-t-butyl) borate]
  Relative rate of hydrolysis: >5.87 × 10^5

## Clc1ccccc1OB(Oc1ccccc1Cl)Oc1ccccc1Cl [Tri-o-chlorophenyl borate]
  Relative rate of hydrolysis: >5.87 × 10^5
